The list shows only some results of the screen, not a fair sample: it gathers tests that were run many times, whatever their T/C, doses with no T/C, and many T/C values between a quarter and a half above the control. Further doses and runs are listed elsewhere. T/C gives the treated animals as a percentage of the vehicle group. Some entries give survivors of the animals treated and no T/C: the source holds a T/C of zero for them, seemingly a mark for toxic or unscored doses. Some survivor counts are full or nearly so, which does not show that the dose was tolerated: the source hardly ever lists a survival T/C far under the control, and the zero likely stands for such cases as well. Counts of survivors are from the toxicity check (mostly the fifth day) where no day follows; animals may have died later. Schedules are NCI's codes, taken here to give the interval after Q, in days (D) or hours (H), and the number of doses after X. Some schedule codes hold Z or #, which are not explained here. Some structures stand for samples that the source files as different forms (salt, stereo form or complex); doses refer to the form tested. Some entries were tested several times; their values stand side by side, smallest first. Where survival is the endpoint, the PubChem record calls one and a half times the control and up active, and a quarter to a half above the control has no call in these data; cut-offs in other NCI protocols can differ. Counts like (3×) stand for listed records that agree. Some T/C values carry the count of animals alive at the toxicity check (mostly the fifth day); where none is given, no animal had died by that day.
Tested on: L1210 leukemia ip in BDF1 mice, survival T/C
Assay: NCI In Vivo Anticancer Drug Screen. Data for tumor model L1210 Leukemia (intraperitoneal) in B6D2F1 (BDF1) mice
Conditions: T/C endpoint: mean survival time, higher T/C = longer survival
[1] = dose: 400.0 mg/kg/injection, schedule: Q04DX003 (ip), vehicle: Klucel (hydroxypropylcellulose) (HPC)
[2] = dose: 50.0 mg/kg/injection, schedule: Q01DX009 (ip), vehicle: saline
[3] = dose: 100.0 mg/kg/injection, schedule: Q01DX009 (ip), vehicle: saline
[4] = dose: 200.0 mg/kg/injection, schedule: Q01DX009 (ip), vehicle: saline
[5] = dose: 100.0 mg/kg/injection, schedule: Q04DX003 (ip), vehicle: Klucel (hydroxypropylcellulose) (HPC)
[6] = dose: 200.0 mg/kg/injection, schedule: Q04DX003 (ip), vehicle: Klucel (hydroxypropylcellulose) (HPC)
[7] = dose: 200.0 mg/kg/injection, schedule: Q04DX002 (ip), vehicle: saline
[8] = dose: 400.0 mg/kg/injection, schedule: Q04DX002 (ip), vehicle: saline
[9] = dose: 100.0 mg/kg/injection, schedule: Q01DX001 (ip), vehicle: saline
[10] = dose: 200.0 mg/kg/injection, schedule: Q01DX001 (ip), vehicle: saline
[11] = dose: 400.0 mg/kg/injection, schedule: Q01DX001 (ip), vehicle: saline
[12] = dose: 100.0 mg/kg/injection, schedule: Q04DX002 (ip), vehicle: saline

Cc1cc([P+](c2ccccc2)(c2ccccc2)c2ccccc2)c(C)cc1[P+](c1ccccc1)(c1ccccc1)c1ccccc1
survivor count (dose: 6.25 mg/kg/injection, schedule: Q04DX003 (ip), vehicle: Klucel (hydroxypropylcellulose) (HPC)): 3 of 6 | survivor count (dose: 12.5 mg/kg/injection, schedule: Q04DX003 (ip), vehicle: Klucel (hydroxypropylcellulose) (HPC)): 0 of 6 | survivor count (dose: 25.0 mg/kg/injection, schedule: Q04DX003 (ip), vehicle: Klucel (hydroxypropylcellulose) (HPC)): 0 of 6 | survivor count (dose: 100.0 mg/kg/injection, schedule: Q04DX003 (ip), vehicle: saline): 0 of 6 | survivor count (dose: 200.0 mg/kg/injection, schedule: Q04DX003 (ip), vehicle: saline): 0 of 6 | survivor count (dose: 400.0 mg/kg/injection, schedule: Q04DX003 (ip), vehicle: saline): 0 of 6

CNC(=N)c1ccc(NC(=N)c2ccc(NC(=O)Nc3ccc(C(=N)Nc4ccc(C(=N)NC)cc4)cc3)cc2)cc1
T/C (dose: 3.7 mg/kg/injection, schedule: Q01DX Z (ip), vehicle: carboxymethylcellulose (CMC)): 127 % of control | survivor count (dose: 14.0 mg/kg/injection, schedule: Q01DX Z (ip), vehicle: water): 3 of 5 | survivor count (dose: 21.0 mg/kg/injection, schedule: Q01DX Z (ip), vehicle: water): 0 of 6 | T/C (dose: 28.0 mg/kg/injection, schedule: Q01DX Z (ip), vehicle: carboxymethylcellulose (CMC)): 127 % of control | survivor count (dose: 28.0 mg/kg/injection, schedule: Q01DX Z (ip), vehicle: water): 0 of 6 | survivor count (dose: 36.0 mg/kg/injection, schedule: Q01DX Z (ip), vehicle: water): 0 of 6 | survivor count (dose: 42.0 mg/kg/injection, schedule: Q01DX Z (ip), vehicle: water): 0 of 6 | survivor count (dose: 63.0 mg/kg/injection, schedule: Q01DX Z (ip), vehicle: water): 0 of 6 | survivor count (dose: 95.0 mg/kg/injection, schedule: Q01DX Z (ip), vehicle: water): 0 of 6

CC1=Nc2c([nH]cnc2=S)NN1
survivor count (dose: 25.0 mg/kg/injection, schedule: Q01DX009 (ip), vehicle: saline with Tween-80): 0 of 6 | survivor count (dose: 50.0 mg/kg/injection, schedule: Q01DX001 (ip), vehicle: saline with Tween-80): 1 of 6

OC1(c2ccncc2)CCc2ccccc21 (stereo not given)
survivor count [1]: 0 of 6

NC(CO)C(=O)O.[Cl-].[Cl-].[Cl-].[Cl-].[Pt+2] (stereo not given)
T/C (dose: 25.0 mg/kg/injection, schedule: Q01DX009 (ip), vehicle: saline): 125 % of control | T/C [2]: 133 and 138 % of control | survivor count [3]: 2 of 6, 2 of 3, 4 of 6 | survivor count [4]: 0 of 3

CCn1c(C)[n+](CC)c2cc(Cl)c([N+](=O)[O-])cc21
survivor count (dose: 100.0 mg/kg/injection, schedule: Q01DX009 (ip), vehicle: saline with Tween-80): 0 of 6 | survivor count (dose: 200.0 mg/kg/injection, schedule: Q01DX009 (ip), vehicle: saline with Tween-80): 0 of 6 | survivor count (dose: 400.0 mg/kg/injection, schedule: Q01DX009 (ip), vehicle: saline with Tween-80): 0 of 6

CSc1nc(Cl)nc(C(Cl)Cl)c1Cl
survivor count (dose: 100.0 mg/kg/injection, schedule: Q01DX009 (ip), vehicle: other): 0 of 3 | survivor count (dose: 200.0 mg/kg/injection, schedule: Q01DX009 (ip), vehicle: other): 0 of 3

BrCc1ccc2ccccc2c1Br
survivor count [5]: 6 of 6 | survivor count [6]: 1 of 6 | survivor count [1]: 0 of 6

C=C(Br)COCC
survivor count (dose: 50.0 mg/kg/injection, schedule: Q01DX009 (ip), vehicle: acetone): 2 of 6 | survivor count (dose: 100.0 mg/kg/injection, schedule: Q01DX009 (ip), vehicle: acetone): 0 of 6

CC(=O)CCC(C#N)c1ccccc1 (stereo not given)
survivor count [7]: 0 of 3 | survivor count [8]: 1 of 3

Oc1c(-c2ccccc2)nn(O)c1-c1ccccc1
survivor count (dose: 100.0 mg/kg/injection, schedule: Q01DX009 (ip), vehicle: Klucel (hydroxypropylcellulose) (HPC)): 0 of 3 | survivor count (dose: 200.0 mg/kg/injection, schedule: Q01DX009 (ip), vehicle: Klucel (hydroxypropylcellulose) (HPC)): 0 of 3

O=C1C(Cl)=C(NCc2ccccc2Cl)C(=O)c2ccccc21
survivor count (dose: 100.0 mg/kg/injection, schedule: Q01DX001 (ip), vehicle: saline with Tween-80): 0 of 6 | survivor count (dose: 200.0 mg/kg/injection, schedule: Q01DX001 (ip), vehicle: saline with Tween-80): 0 of 6 | survivor count (dose: 400.0 mg/kg/injection, schedule: Q01DX001 (ip), vehicle: saline with Tween-80): 0 of 6

COc1cccc(C)c1NC(=O)Nc1c(C)cccc1OC
survivor count [5]: 6 of 6 | survivor count [6]: 6 of 6 | survivor count [1]: 6 of 6

O=C1C(Cl)(Cl)C(=O)C(Cl)(Cl)C(=O)C1(Cl)Cl
survivor count (dose: 100.0 mg/kg/injection, schedule: Q04DX002 (ip), vehicle: saline with Tween-80): 0 of 3 | survivor count (dose: 200.0 mg/kg/injection, schedule: Q04DX002 (ip), vehicle: saline with Tween-80): 0 of 3 | survivor count (dose: 400.0 mg/kg/injection, schedule: Q04DX002 (ip), vehicle: saline with Tween-80): 0 of 3

O=C(Nc1cccc(C2=NCCN2)c1)c1cc(C(=O)Nc2cccc(C3=NCCN3)c2)cc(C(=O)Nc2cccc(C3=NCCN3)c2)c1
survivor count (dose: 50.0 mg/kg/injection, schedule: Q01DX Z (ip), vehicle: saline): 2 of 6 | survivor count (dose: 75.0 mg/kg/injection, schedule: Q01DX Z (ip), vehicle: saline): 1 of 6

c1cc(N2CCOCC2)cc(NC2CCCCC2)n1
survivor count [9]: 3 of 6 | survivor count [10]: 1 of 6 | survivor count [11]: 0 of 6

CC1(C)N=C(N)N=C(N)N1c1cccc(CCCCc2cccc(N)c2)c1
survivor count (dose: 40.0 mg/kg/injection, schedule: Q01DX001 (ip), vehicle: saline): 2 of 4 | survivor count (dose: 80.0 mg/kg/injection, schedule: Q01DX001 (ip), vehicle: saline): 0 of 4 | survivor count [9]: 0 of 4 | survivor count [10]: 0 of 4 | survivor count [11]: 0 of 4

NCCCN1CCN(CCCN)CC1
T/C [12]: 96, 98, 101 % of control | survivor count [12]: 3 of 3 | T/C [7]: 91, 92, 98, 108 % of control | T/C [8]: 92, 100, 107 % of control | survivor count [8]: 3 of 3

NC(CSC(c1ccccc1)(c1ccccc1)c1ccccc1)C(=O)OC(c1ccccc1)c1ccccc1 (stereo not given)
T/C (dose: 264.0 mg/kg/injection, schedule: Q01DX001 (ip), vehicle: carboxymethylcellulose (CMC)): 126 % of control | T/C (dose: 600.0 mg/kg/injection, schedule: Q01DX001 (ip), vehicle: carboxymethylcellulose (CMC)): 131 and 137 % of control

CC1=CCC(=C(C)C)C1C(=O)NC1CCCCC1 (stereo not given)
survivor count [10]: 0 of 6

OC(CF)CF
T/C [2]: 141 % of control [5 of 6 alive] | survivor count [3]: 1 of 6 | survivor count [4]: 0 of 6 | survivor count (dose: 400.0 mg/kg/injection, schedule: Q01DX009 (ip), vehicle: saline): 0 of 6

O=C(CNC(=O)c1ccc(C(=O)NCC(=O)Nc2ccc(C3=NCCN3)cc2)cc1)Nc1ccc(C2=NCCN2)cc1
T/C (dose: 60.0 mg/kg/injection, schedule: Q01DX001 (ip), vehicle: methylcellulose (MC)): 131 % of control | T/C (dose: 300.0 mg/kg/injection, schedule: Q01DX001 (ip), vehicle: methylcellulose (MC)): 134 % of control (2×) | survivor count (dose: 450.0 mg/kg/injection, schedule: Q01DX Z (ip), vehicle: carboxymethylcellulose (CMC)): 3 of 6

Source: PubChem BioAssay AID248 (DTP/NCI, 2004)
